Data: PubChem BioAssay AID504467 (National Center for Advancing Translational Sciences (NCATS), 2011)
Screen size: about 330,000 compounds; about 7,700 (2.3%) were called active. The inconclusive results got no clear call from the source; some entries with a clear call stand among them for comparison. Calls follow the shape of the dose curve; as a rule, active = well fitted inhibition curve with a large enough effect; inconclusive = small, poorly fitted or top-dose-only effect, or effect the other way; inactive = flat fitted curve, though single readings scatter. Where the call is inconclusive, the potency comes from a doubtful curve fit.

Experiment: qHTS screen for small molecules that inhibit ELG1-dependent DNA repair in human embryonic kidney (HEK293T) cells expressing luciferase-tagged ELG1; also: nearly all actives have a fitted effect of over 55% in size
Conditions: HEK293T ELG1-luciferase reporter, luminescence, 16 h, DNA damage induced by 5-fluorouridine; activity change, negative = inhibition: at 46.1 µM (top of the series)
In short: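 5-Fluorouridine DNA damage + compound/DMSO, 2,000 cells/well, 16 h, 37 °C/5% CO2. ONE-Glo, 30 min RT, luminescence. Readout = decrease in reporter signal.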
% is scaled to controls: 0 for no effect and ±100 for the full control effect; potency is read from the fitted curve at half-maximal effect.

| SMILES | Potency | activity change, negative = inhibition |
| --- | --- | --- |
| CC(=O)/C(N=Nc1ccc2c(c1)OCCO2)=C(\C)O | inconclusive: 2.31 µM [activator, partial curve] |  |
| COc1ccc(C(=O)O)cc1S(=O)(=O)N1CCSCC1 |  | inactive: -2.02% |
| NCCOc1ccc(C23CC4CC(CC(C4)C2)C3)cc1 | inconclusive: 29.1 µM [activator, single point] |  |
| O=C(CC12CC3CC(C1)CC(CC(=O)N1CCCC1)(C3)C2)N1CCCC1 |  | inactive: -30.7% |
| CN(C)c1cc[n+](CC(=O)Nc2ccc(Cl)cc2)cc1 | inconclusive: 2.31 µM [inhibitor, partial curve] |  |
| O=S(=O)(Nc1nc2ccccc2nc1Cl)c1ccc(Cl)cc1 | inconclusive: 8.2 µM [inhibitor, partial curve, poor fit] |  |
| CCOc1ccc(CN2CCN(Cc3cnc(-c4ccccc4)s3)CC2CCO)cc1 (configuration not stated) | inconclusive: 16.4 µM [inhibitor, partial curve] |  |
| Cc1ccc(NC(=O)Nc2cccc(C)n2)cc1 | inconclusive: 9.2 µM [activator, partial curve] |  |
| Cc1ccccc1NC(=O)c1cnn(-c2ccccc2)c1C | inconclusive: 16.4 µM [activator, partial curve] |  |
| Cc1ccc(C2=NN(C(=O)CSc3nccn3C)C(c3ccco3)C2)cc1 (configuration not stated) | inconclusive: 10.3 µM [inhibitor, partial curve, poor fit] |  |
| O=C(Nc1cccc(-c2nc3cccnc3s2)c1)c1ccco1 | inconclusive: 35.5 µM [inhibitor, single point] |  |
| O=[N+]([O-])c1ccc(N2CCN(c3ccc([N+](=O)[O-])cc3CO)CC2)c(CO)c1 | inconclusive: 23.1 µM [inhibitor, partial curve] |  |
| C=CCn1c(=O)/c(=C/c2ccc(F)cc2)s/c1=C(\C#N)c1nnc2n1CCCCC2 | inconclusive: 23.1 µM [inhibitor, single point] |  |
| COc1ccc(CC(=O)N(c2ccccc2)c2nc(C)cs2)cc1 |  | inactive: -12.3% |
| CC(C)(C)c1ccc(C(=O)NNC(=O)C2CCCCC2)cc1 | inconclusive: 18.4 µM [activator, partial curve] |  |
| N#CCSc1nc2ccc(N3CCOCC3)cc2c(=O)n1CCc1ccccc1 | inconclusive: 23.1 µM [inhibitor, partial curve] |  |
| Nc1n[nH]c(C2CC2)c1N=Nc1ccc(Cl)cc1 |  | inactive: -1.94% |
| O=C(OCC(=O)N1CCc2ccccc2C1)c1c(F)cccc1Cl | inconclusive: 2.59 µM [activator, partial curve] |  |
| O=C(NCC1CCCO1)c1csc2c1CCCC2 (configuration not stated) | inconclusive: 16.4 µM [activator, single point] |  |
| Cc1c(C2(O)CCCCC2)[nH]c2ncccc12 | inconclusive: 0.517 µM [inhibitor, partial curve] |  |
| O=C(CSc1ncccn1)Nc1ccc2c(c1)OCO2 | inconclusive: 16.4 µM [activator, single point] |  |

| SMILES | Potency | activity change, negative = inhibition |
| --- | --- | --- |
| O=C(CN1C(=O)NC2(CCCCC2)C1=O)Nc1ccc(Cl)c(S(=O)(=O)N2CCOCC2)c1 | inconclusive: 29.1 µM [inhibitor, single point] |  |
| COc1cc(/C=C/C(=O)Nc2cccc(S(=O)(=O)NC3=NCCCCC3)c2)ccc1OCC#N | inconclusive: 13 µM [inhibitor, single point] |  |
| Cc1ccc(OCc2nc3ccccc3n2C)cc1 | inconclusive: 12.6 µM [activator, partial curve, poor fit] |  |
| Cc1cc(NC(=O)/C=C/C(=O)N(c2ccccc2C)C(C(=O)NC2CCCC2)c2ccc(F)cc2)no1 (configuration not stated) | inconclusive: 29.1 µM [inhibitor, single point] |  |
| COc1ccc(-n2nc3c(c2NC(C)=O)CS(=O)(=O)C3)cc1 |  | inactive: 10.7% |
| Cc1ccc(NC(=O)CC2COc3ccccc3O2)cc1 (configuration not stated) | inconclusive: 16.4 µM [activator, single point] |  |
| O=c1cc(/C=C/c2ccccc2)oc2ccccc12 | inconclusive: 6.51 µM [activator, partial curve] |  |
| Cc1nn(-c2ccccc2)c(Cl)c1/C=N/NC(=O)CNC(=O)c1ccccc1Cl | inconclusive: 20.6 µM [inhibitor, partial curve, poor fit] |  |
| CCN(CC)S(=O)(=O)c1ccc(N/N=C/c2ccc(O)cc2O)nc1 | inconclusive: 3.26 µM [inhibitor, partial curve, poor fit] |  |
| Cc1cc(C)n(CCC(=O)Nc2ccc3c(c2)OCCO3)n1 | inconclusive: 14.6 µM [activator, partial curve] |  |
| CC(C)OCCCn1c(SC(C)C(=O)NC2CC2)nc2ccccc2c1=O (configuration not stated) | inconclusive: 7.3 µM [activator, partial curve, poor fit] |  |
| COc1ccc(Cl)cc1NC(=O)CN(C)C(=O)CCCNC(=O)c1ccc(Cl)cc1 |  | inactive: 21.5% |
| CCC(c1nnnn1Cc1ccc2c(c1)OCO2)N1CCN(c2ccc(F)cc2)CC1 (configuration not stated) | inconclusive: 16.4 µM [inhibitor, partial curve, poor fit] |  |
| C=CCn1c(SCC(O)Cn2c3ccccc3c3ccccc32)nnc1-c1ccco1 (configuration not stated) | inconclusive: 23.1 µM [inhibitor, single point] |  |
| COc1ccc(N=C(NN)c2ccc3ccccc3n2)cc1 | inconclusive: 4.61 µM [activator, partial curve] |  |
| COc1ccc2cc3c(N)nn(C(=O)c4cccc([N+](=O)[O-])c4)c3nc2c1 | active: 2.31 µM |  |
| CC(=O)N1CCN(S(=O)(=O)c2cccc(C(=O)Nc3ccccc3N3CCCCC3)c2)CC1 |  | inactive: 2.67% |
| CCOC(=O)CCc1c(C)c2ccc(OCc3cc([N+](=O)[O-])ccc3OC)c(C)c2oc1=O |  | inactive: 8.58% |
| Cc1cc(C)cc(OCC(=O)O/N=C(\N)c2ccccn2)c1 | inconclusive: 18.4 µM [activator, single point] |  |
| COc1ccccc1N(CC(O)Cn1c2ccccc2c2ccccc21)S(=O)(=O)c1ccccc1 (configuration not stated) | inconclusive: 25.9 µM [inhibitor, single point] |  |
| Cc1ccc(-c2c(C(=O)NCc3ccc(F)cc3)oc(=O)c3ccccc23)cc1 | inconclusive: 29.1 µM [inhibitor, partial curve, poor fit] |  |

Nothing new here: 2 of the compounds above.

| SMILES | Potency | activity change, negative = inhibition |
| --- | --- | --- |
| Cc1ccc(OCc2nc3ccccc3n2C)cc1 | inconclusive: 12.6 µM [activator, partial curve, poor fit] |  |
| Cc1cc(NC(=O)/C=C/C(=O)N(c2ccccc2C)C(C(=O)NC2CCCC2)c2ccc(F)cc2)no1 (configuration not stated) | inconclusive: 29.1 µM [inhibitor, single point] |  |
